Assay results taken from PubChem BioAssay AID330 (DTP/NCI, 2004).
The list shows only some results of the screen, not a fair sample: its compounds were picked by chemical class. Other doses and runs of a compound may be missing. T/C gives the treated animals as a percentage of the vehicle group. Some doses have a count of surviving animals in place of a T/C: the source holds a T/C of zero for them, seemingly a mark for toxic or unscored doses. Some doses without a T/C left all or most animals alive at the check, yet need not have been tolerated: survival well below the control is almost never listed, so the zero probably covers shortened survival too. Survivors were counted at the toxicity check, usually on the fifth day, unless a day is given; later deaths do not show. Schedules are NCI's codes, taken here to give the interval after Q, in days (D) or hours (H), and the number of doses after X. Where survival is the endpoint, this PubChem deposit counts one and a half times the control or more as active, and values a quarter to a half above the control carry no call in these data; other NCI protocols may use other cut-offs. Some T/C values are followed by the survivors on the day toxicity was checked, most often the fifth; where neither a count nor a note follows, no animal had died by that day. Some entries hold several experiments; the values are given in rising order. Some T/C values are marked as having no survivor count here; that says nothing about deaths at the dose. Some metal complexes and salts are drawn in pieces, as in the source, so charges may not balance.

Tested on: P388 leukemia ip, CD2F1 mice, survival T/C
Assay: NCI In Vivo Anticancer Drug Screen. Data for tumor model P388 Leukemia (intraperitoneal) in CD2F1 (CDF1) mice
Conditions: T/C endpoint: median survival time, higher T/C = longer survival
[1] = dose: 100.0 mg/kg/injection, schedule: Q04DX003 (ip), vehicle: Klucel (hydroxypropylcellulose) (HPC)
[2] = dose: 200.0 mg/kg/injection, schedule: Q04DX003 (ip), vehicle: Klucel (hydroxypropylcellulose) (HPC)
[3] = dose: 400.0 mg/kg/injection, schedule: Q04DX003 (ip), vehicle: Klucel (hydroxypropylcellulose) (HPC)
[4] = dose: 100.0 mg/kg/injection, schedule: Q01DX001 (ip), vehicle: saline
[5] = dose: 200.0 mg/kg/injection, schedule: Q01DX001 (ip), vehicle: saline
[6] = dose: 50.0 mg/kg/injection, schedule: Q01DX009 (ip), vehicle: saline with Tween-80
[7] = dose: 100.0 mg/kg/injection, schedule: Q01DX009 (ip), vehicle: saline with Tween-80
[8] = dose: 200.0 mg/kg/injection, schedule: Q01DX009 (ip), vehicle: saline with Tween-80
[9] = dose: 60.0 mg/kg/injection, schedule: Q01DX005 (ip), vehicle: saline
[10] = dose: 120.0 mg/kg/injection, schedule: Q01DX005 (ip), vehicle: saline
[11] = dose: 240.0 mg/kg/injection, schedule: Q01DX005 (ip), vehicle: saline
[12] = dose: 50.0 mg/kg/injection, schedule: Q01DX005 (ip), vehicle: Klucel (hydroxypropylcellulose) (HPC)
[13] = dose: 100.0 mg/kg/injection, schedule: Q01DX005 (ip), vehicle: Klucel (hydroxypropylcellulose) (HPC)
[14] = dose: 200.0 mg/kg/injection, schedule: Q01DX005 (ip), vehicle: Klucel (hydroxypropylcellulose) (HPC)

O/N=C1/CNCC(NO)=N1
T/C (dose: 50.0 mg/kg/injection, schedule: Q01DX005 (ip), vehicle: saline): 101 % of control | T/C (dose: 100.0 mg/kg/injection, schedule: Q01DX005 (ip), vehicle: saline): 100 % of control | T/C (dose: 200.0 mg/kg/injection, schedule: Q01DX005 (ip), vehicle: saline): 107 % of control

COC(=O)N(CCCl)CCCl
T/C [1]: 112 % of control | T/C [2]: 115 % of control [5 of 6 alive] | survivor count [3]: 1 of 6

COc1ccc(CN2CCCN(Cc3ccc(OC)cc3)P2(=O)Cl)cc1
T/C (dose: 25.0 mg/kg/injection, schedule: Q01DX001 (ip), vehicle: saline): 97 % of control | T/C (dose: 50.0 mg/kg/injection, schedule: Q01DX001 (ip), vehicle: saline): 100 % of control | T/C [4]: 103 % of control | T/C [5]: 95 % of control

[Co].[N-]=[N+]=N.[N-]=[N+]=N.[N-]=[N+]=N.[NH-]CC[N-]CC[NH-]
T/C (dose: 6.25 mg/kg/injection, schedule: Q01DX009 (ip), vehicle: DMSO): 98 % of control [survivor count not shown] | T/C (dose: 12.5 mg/kg/injection, schedule: Q01DX009 (ip), vehicle: DMSO): 93 % of control [survivor count not shown]

ClC1CCCCC1SCCCC1OCCO1 (centres undefined)
T/C (dose: 60.0 mg/kg/injection, schedule: Q01DX005 (ip), vehicle: saline with Tween-80): 120 % of control | T/C (dose: 120.0 mg/kg/injection, schedule: Q01DX005 (ip), vehicle: saline with Tween-80): 122 % of control | T/C (dose: 240.0 mg/kg/injection, schedule: Q01DX005 (ip), vehicle: saline with Tween-80): 118 % of control

CCOP(=O)(O)CC.[Cr]
T/C [1]: 86 % of control [survivor count not shown] | T/C [2]: 86 % of control [survivor count not shown] | T/C [3]: 87 % of control [survivor count not shown]

O=C1C=C(N(CCCl)CCCl)C(=O)C=C1Cl
T/C [1]: 123 % of control [5 of 6 alive] | T/C [2]: 136 % of control | T/C [3]: 144 % of control

O=[N+]([O-])c1cccc(Oc2ccc([N+](=O)[O-])cc2[N+](=O)[O-])c1
T/C (dose: 50.0 mg/kg/injection, schedule: Q01DX009 (ip), vehicle: Klucel (hydroxypropylcellulose) (HPC)): 106 % of control | T/C (dose: 100.0 mg/kg/injection, schedule: Q01DX009 (ip), vehicle: Klucel (hydroxypropylcellulose) (HPC)): 113 % of control | T/C (dose: 200.0 mg/kg/injection, schedule: Q01DX009 (ip), vehicle: Klucel (hydroxypropylcellulose) (HPC)): 116 % of control

CC1COP(N(C)C)O1 (centres undefined)
T/C (dose: 50.0 mg/kg/injection, schedule: Q04DX003 (ip), vehicle: saline with Tween-80): 110 % of control | T/C (dose: 100.0 mg/kg/injection, schedule: Q04DX003 (ip), vehicle: saline with Tween-80): 110 % of control | T/C (dose: 200.0 mg/kg/injection, schedule: Q04DX003 (ip), vehicle: saline with Tween-80): 100 % of control | T/C (dose: 400.0 mg/kg/injection, schedule: Q04DX003 (ip), vehicle: saline with Tween-80): 100 % of control

O=[N+]([O-])c1cc([N+](=O)[O-])c(-c2ncnc(-c3c([N+](=O)[O-])cc([N+](=O)[O-])cc3[N+](=O)[O-])c2[N+](=O)[O-])c([N+](=O)[O-])c1
T/C [6]: 100 % of control | T/C [7]: 98 % of control | T/C [8]: 100 % of control

[N-]=[N+]=NCc1cn[nH]n1
T/C [9]: 100 % of control | T/C [10]: 100 % of control | T/C [11]: 103 % of control

O=c1[nH]nn[nH]1
T/C [12]: 107 % of control | T/C [13]: 107 % of control | T/C [14]: 94 % of control

Cc1cc([N+](=O)[O-])cn1[N+](=O)[O-]
T/C (dose: 12.5 mg/kg/injection, schedule: Q01DX009 (ip), vehicle: saline with Tween-80): 92 % of control | T/C (dose: 25.0 mg/kg/injection, schedule: Q01DX009 (ip), vehicle: saline with Tween-80): 98 % of control | T/C [6]: 109 and 109 % of control [4 of 6 alive] | survivor count [7]: 0 of 6 | survivor count [8]: 0 of 6

CN1N=C(c2ccccc2)N2P(=O)(c3ccccc3)N3C(c4ccccc4)=NN(C)P123N (centres undefined)
T/C [9]: 104 % of control | T/C [10]: 94 % of control [4 of 6 alive] | T/C [11]: 95 % of control

N/C=N/P(=O)(OCc1ccccc1)OCc1ccccc1
T/C [12]: 95 % of control | T/C [13]: 101 % of control | T/C [14]: 100 % of control [5 of 6 alive]

CC(=O)C1CCN(C)CC1.O=[N+]([O-])c1cc([N+](=O)[O-])c(O)c([N+](=O)[O-])c1
T/C (dose: 30.0 mg/kg/injection, schedule: Q01DX005 (ip), vehicle: Klucel (hydroxypropylcellulose) (HPC)): 101 % of control | T/C (dose: 60.0 mg/kg/injection, schedule: Q01DX005 (ip), vehicle: Klucel (hydroxypropylcellulose) (HPC)): 101 % of control | T/C (dose: 120.0 mg/kg/injection, schedule: Q01DX005 (ip), vehicle: Klucel (hydroxypropylcellulose) (HPC)): 102 % of control | survivor count (dose: 240.0 mg/kg/injection, schedule: Q01DX005 (ip), vehicle: Klucel (hydroxypropylcellulose) (HPC)): 4 of 6

COc1ccc(N2CC=C(c3ccccc3)OP2(=O)Cl)cc1 (centres undefined)
T/C (dose: 25.0 mg/kg/injection, schedule: Q01DX005 (ip), vehicle: Klucel (hydroxypropylcellulose) (HPC), evaluated on day 20): 109 % of control | T/C (dose: 25.0 mg/kg/injection, schedule: Q01DX005 (ip), vehicle: Klucel (hydroxypropylcellulose) (HPC), evaluated on day 30): 105 % of control | T/C (dose: 50.0 mg/kg/injection, schedule: Q01DX005 (ip), vehicle: Klucel (hydroxypropylcellulose) (HPC), evaluated on day 20): 110 % of control | T/C (dose: 50.0 mg/kg/injection, schedule: Q01DX005 (ip), vehicle: Klucel (hydroxypropylcellulose) (HPC), evaluated on day 30): 106 and 108 % of control | T/C (dose: 100.0 mg/kg/injection, schedule: Q01DX005 (ip), vehicle: Klucel (hydroxypropylcellulose) (HPC), evaluated on day 20): 109 % of control | T/C (dose: 100.0 mg/kg/injection, schedule: Q01DX005 (ip), vehicle: Klucel (hydroxypropylcellulose) (HPC), evaluated on day 30): 105 and 116 % of control [5 of 6 alive] | T/C (dose: 200.0 mg/kg/injection, schedule: Q01DX005 (ip), vehicle: Klucel (hydroxypropylcellulose) (HPC), evaluated on day 20): 122 % of control | T/C (dose: 200.0 mg/kg/injection, schedule: Q01DX005 (ip), vehicle: Klucel (hydroxypropylcellulose) (HPC), evaluated on day 30): 116 and 130 % of control

C1CNNCCNN1.O=[N+]([O-])c1cc([N+](=O)[O-])c(O)c([N+](=O)[O-])c1
T/C (dose: 50.0 mg/kg/injection, schedule: Q01DX001 (ip), vehicle: Klucel (hydroxypropylcellulose) (HPC)): 98 % of control [survivor count not shown] | T/C (dose: 100.0 mg/kg/injection, schedule: Q01DX001 (ip), vehicle: Klucel (hydroxypropylcellulose) (HPC)): 103 % of control [survivor count not shown] | T/C (dose: 200.0 mg/kg/injection, schedule: Q01DX001 (ip), vehicle: Klucel (hydroxypropylcellulose) (HPC)): 95 % of control [survivor count not shown]

CC[C@H](C)[C@@H]1NC(=O)/C(=C(\C)O)C1=O
T/C (dose: 12.5 mg/kg/injection, schedule: Q01DX009 (ip), vehicle: saline sonified): 109 % of control | T/C (dose: 25.0 mg/kg/injection, schedule: Q01DX009 (ip), vehicle: saline sonified): 100 % of control | T/C (dose: 50.0 mg/kg/injection, schedule: Q01DX009 (ip), vehicle: saline sonified): 109 % of control

C1CN1.Cc1c[nH]c(=O)[nH]c1=O.NC(CC(=O)O)C(=O)O
T/C [4]: 99 % of control [5 of 6 alive] | T/C [5]: 101 % of control | T/C (dose: 400.0 mg/kg/injection, schedule: Q01DX001 (ip), vehicle: saline): 100 % of control
